The target of test [1] is Wilms' tumour 1 (WT1) protein (mouse (endogenous in M15)) (UniProt P22561). As to the kind of experiment: co-IP.
In the next test the target is GFP tagged GW182 (UniProt Q8NDV7). As to the kind of experiment: co-IP.

Chains of the proteins cited; added tags and fusions are not shown.
UniProt P22561: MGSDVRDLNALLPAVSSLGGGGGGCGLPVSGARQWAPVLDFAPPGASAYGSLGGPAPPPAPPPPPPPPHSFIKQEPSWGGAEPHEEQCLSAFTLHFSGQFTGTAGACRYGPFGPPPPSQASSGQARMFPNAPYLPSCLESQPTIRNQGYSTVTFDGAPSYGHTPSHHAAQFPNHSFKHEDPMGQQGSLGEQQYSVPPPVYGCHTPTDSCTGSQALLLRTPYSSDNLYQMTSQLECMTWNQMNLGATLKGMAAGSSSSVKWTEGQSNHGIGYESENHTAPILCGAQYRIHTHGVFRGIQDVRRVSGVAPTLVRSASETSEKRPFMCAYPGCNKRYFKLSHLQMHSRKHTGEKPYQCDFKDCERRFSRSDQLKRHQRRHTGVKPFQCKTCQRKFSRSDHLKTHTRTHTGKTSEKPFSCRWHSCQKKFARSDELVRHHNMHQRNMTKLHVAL
UniProt Q8NDV7: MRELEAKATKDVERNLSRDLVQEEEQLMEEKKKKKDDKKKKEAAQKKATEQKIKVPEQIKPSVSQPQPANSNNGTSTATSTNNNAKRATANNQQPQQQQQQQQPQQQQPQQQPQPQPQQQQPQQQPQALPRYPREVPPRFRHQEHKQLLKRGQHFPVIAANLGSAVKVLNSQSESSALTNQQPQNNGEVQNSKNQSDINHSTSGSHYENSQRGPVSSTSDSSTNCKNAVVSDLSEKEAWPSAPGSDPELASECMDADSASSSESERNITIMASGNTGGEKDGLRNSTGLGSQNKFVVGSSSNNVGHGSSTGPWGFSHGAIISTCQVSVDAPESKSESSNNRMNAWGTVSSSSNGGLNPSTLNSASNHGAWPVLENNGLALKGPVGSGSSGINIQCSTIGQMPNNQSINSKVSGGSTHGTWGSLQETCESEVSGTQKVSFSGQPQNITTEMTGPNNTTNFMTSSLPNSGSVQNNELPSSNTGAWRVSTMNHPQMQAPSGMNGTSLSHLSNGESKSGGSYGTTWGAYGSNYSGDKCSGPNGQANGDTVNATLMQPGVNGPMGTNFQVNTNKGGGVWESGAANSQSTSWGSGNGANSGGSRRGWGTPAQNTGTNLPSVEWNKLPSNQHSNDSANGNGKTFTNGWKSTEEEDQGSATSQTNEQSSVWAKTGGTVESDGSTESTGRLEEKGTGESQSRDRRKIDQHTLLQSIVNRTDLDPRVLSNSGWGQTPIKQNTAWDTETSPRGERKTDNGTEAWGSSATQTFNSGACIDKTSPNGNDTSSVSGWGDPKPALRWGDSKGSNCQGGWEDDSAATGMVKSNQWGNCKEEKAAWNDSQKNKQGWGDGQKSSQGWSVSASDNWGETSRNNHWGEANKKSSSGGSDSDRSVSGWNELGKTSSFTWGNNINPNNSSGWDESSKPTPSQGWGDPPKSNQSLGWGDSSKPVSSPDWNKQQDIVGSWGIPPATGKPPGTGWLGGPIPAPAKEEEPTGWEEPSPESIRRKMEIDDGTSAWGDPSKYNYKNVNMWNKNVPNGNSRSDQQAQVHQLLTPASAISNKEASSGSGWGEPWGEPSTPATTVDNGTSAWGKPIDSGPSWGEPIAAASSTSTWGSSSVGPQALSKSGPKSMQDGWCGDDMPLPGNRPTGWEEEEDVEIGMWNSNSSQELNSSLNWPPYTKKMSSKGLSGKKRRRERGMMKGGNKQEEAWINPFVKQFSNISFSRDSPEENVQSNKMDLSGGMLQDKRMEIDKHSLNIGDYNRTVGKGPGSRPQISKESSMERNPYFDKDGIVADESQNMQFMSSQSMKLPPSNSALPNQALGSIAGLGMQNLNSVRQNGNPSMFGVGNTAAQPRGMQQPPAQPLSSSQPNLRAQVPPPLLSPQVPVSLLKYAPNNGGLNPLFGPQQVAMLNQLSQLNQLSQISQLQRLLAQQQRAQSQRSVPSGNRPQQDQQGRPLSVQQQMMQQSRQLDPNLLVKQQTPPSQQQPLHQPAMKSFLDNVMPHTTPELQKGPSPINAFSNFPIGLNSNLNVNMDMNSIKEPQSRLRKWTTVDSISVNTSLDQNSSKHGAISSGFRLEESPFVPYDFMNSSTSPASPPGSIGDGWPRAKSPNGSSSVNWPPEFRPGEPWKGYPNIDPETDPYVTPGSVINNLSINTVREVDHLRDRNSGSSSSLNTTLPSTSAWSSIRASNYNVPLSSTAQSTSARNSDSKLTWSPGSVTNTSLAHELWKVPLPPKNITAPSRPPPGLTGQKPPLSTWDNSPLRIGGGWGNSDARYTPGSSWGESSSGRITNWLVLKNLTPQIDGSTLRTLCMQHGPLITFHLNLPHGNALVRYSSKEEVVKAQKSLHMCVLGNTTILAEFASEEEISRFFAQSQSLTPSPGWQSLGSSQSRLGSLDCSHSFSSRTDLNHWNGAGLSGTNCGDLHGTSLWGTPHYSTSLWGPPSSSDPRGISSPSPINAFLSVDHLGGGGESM
UniProt Q8CJG0: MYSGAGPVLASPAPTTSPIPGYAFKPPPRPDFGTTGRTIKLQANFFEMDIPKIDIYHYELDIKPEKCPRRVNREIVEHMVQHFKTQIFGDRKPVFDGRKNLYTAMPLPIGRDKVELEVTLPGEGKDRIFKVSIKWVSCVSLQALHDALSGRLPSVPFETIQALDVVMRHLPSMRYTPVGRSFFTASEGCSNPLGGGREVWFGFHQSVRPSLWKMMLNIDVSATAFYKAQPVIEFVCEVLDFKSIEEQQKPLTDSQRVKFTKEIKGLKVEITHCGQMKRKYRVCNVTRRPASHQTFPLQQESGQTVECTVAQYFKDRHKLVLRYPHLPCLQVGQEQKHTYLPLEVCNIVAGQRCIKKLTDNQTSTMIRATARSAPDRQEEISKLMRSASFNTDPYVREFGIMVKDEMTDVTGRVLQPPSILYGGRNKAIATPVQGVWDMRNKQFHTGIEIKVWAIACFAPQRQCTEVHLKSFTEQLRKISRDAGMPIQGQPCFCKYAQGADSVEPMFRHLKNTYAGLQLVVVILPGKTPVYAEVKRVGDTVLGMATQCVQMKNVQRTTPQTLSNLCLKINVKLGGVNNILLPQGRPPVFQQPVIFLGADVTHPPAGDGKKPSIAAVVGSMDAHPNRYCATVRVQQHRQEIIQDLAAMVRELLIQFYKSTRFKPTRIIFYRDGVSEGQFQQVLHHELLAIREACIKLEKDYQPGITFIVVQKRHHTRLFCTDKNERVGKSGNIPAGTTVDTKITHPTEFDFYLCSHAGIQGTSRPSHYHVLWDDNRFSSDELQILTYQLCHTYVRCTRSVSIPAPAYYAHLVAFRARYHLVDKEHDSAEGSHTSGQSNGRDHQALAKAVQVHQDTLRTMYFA

Results are given in words; binding and its absence hold for the method and conditions named. Binding seen in cells or lysates may run through a third protein. Some binding calls cover weakened binding; strength is not graded here.

As for “Argonaute 1 (AGO1) (from UniProt Q8CJG1 1-857)”, the binding result in test [1] is “binds”.

“Argonaute 2 (AGO2) (from UniProt Q8CJG0 1-860)”: in test [1], the binding result is “binds”.

On to “Wilms' tumour 1 (WT1) protein in the cells transfected with GFP-GW182 (from UniProt P22561 1-449)”, for which the binding entry in the test with GFP tagged GW182 is given as “binds”.

The values are drawn from publication doi:10.1101/822973.
